Where a chain is given by its changes, count along the chain named. Results are given in words; binding and its absence hold for the method and conditions named. Some results given as binding are weak or reduced against the parent protein; the word gives no strength. Values belong to the binder of their own block, whether it stands above or below them.
Assays:
[1] = molecular target: T1, human OX40 (Sino Biological Inc) (human, UniProt P43489 29-216); assay: SPR, Biacore
T1 construct: Bought soluble protein used as SPR analyte; also called huOX40
T1 sequence: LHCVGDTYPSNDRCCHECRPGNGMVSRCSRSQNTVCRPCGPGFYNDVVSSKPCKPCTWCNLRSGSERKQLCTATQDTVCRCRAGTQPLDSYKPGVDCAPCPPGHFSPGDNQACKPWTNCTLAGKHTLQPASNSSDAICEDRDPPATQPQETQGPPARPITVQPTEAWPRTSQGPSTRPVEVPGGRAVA

[2] = molecular target: T1, human OX40 (Sino Biological Inc); assay: SPR, Biacore 3000; antibody captured by anti-human Fc, huOX40 injected; ka column
[3] = molecular target: T1, human OX40 (Sino Biological Inc); assay: SPR, Biacore 3000; antibody captured by anti-human Fc, huOX40 injected; kd column

binding [1]: binds
binding [2]: binds
binding [3]: binds
B1: 1D2.gr.1 (antibody, V domains shown)
VH: EVQLVESGPGLVKPSETLSLTCTVSGFSLTDYGVLWIRQPPGKGLEWIGMIWSGGTTDYNAAFISRVTISVDTSKNQFSLKLSSVTAADTAVYYCVREEMDYWGQGTLVTVSS
VL: DIQMTQSPSSLSASVGDRVTITCRASQDISNFLNWYQQKPGKAPKLLIYYTSRLHSGVPSRFSGSGSGTDFTLTISSLQPEDFATYYCQQGNTLPWTFGQGTKVEIK

binding [1]: binds
B2: 1D2.gr.2 (antibody, V domains shown)
VH: B1 VH with V71K, F78V
VL: B1 VL

binding [1]: binds
B3: 1D2.gr.3 (antibody, V domains shown)
VH: B1 VH with I37V, I48L, V67L, V71K, F78V
VL: B1 VL

Reference: patent EP3632934A1 (F. Hoffmann-La Roche AG, dated 2020)
